Measurements: article PMC6964919
Results are given in words; binding and its absence hold for the method and conditions named. Binding seen in cells or lysates may run through a third protein. These calls come from enrichment with a bait or labelling near it, and not all partners need be listed.

Molecular target: GFP-tagged G3BP1 (Ras-GTPase activating SH3 domain binding protein 1)
Test: affinity purification with mass spectrometry

Binder	binding
BRX1 (protein, UniProt Q9DCA5 1-353) MAATKRKRRGGLEVQAKKPKRSSKDAGQPAKQADVAKEAEEENRDRIPGPVCKGKWKNKERILIFSSRGINFRTRHLMQDLRMLMPHSKADTKMDRKDKLFVINEVCEMKNCNKCIYFEAKKKQDLYMWLSNSPHGPSAKFLVQNIHTLAELKMTGNCLKGSRPLLSFDPAFDDLPHYALLKEFLIQIFSTPRYHPKSQPFVDHVFTFTILDNRIWFRNFQIIEEDAALVEIGPRFVLNLIKIFQGSFGGPTLYENPHYQSPNMHRRVIRSITAAKYRERQQVKDVQKLRKKEPKTILPHDPTADVFVIPAEEKPVEIQWVKPEPKVDLKARKRRIYKRHRKLQQKMSRGSAK	binds
Ddx27 (protein, UniProt Q921N6 1-760) MLAELGFIRTIGENDEVPVEPESDSGDEEEEGPIVLGRKQKALQKNRSADFNPDFVFTEKEGMYDGSWALADVMSQLKKKRAATTLDEKIEKVRKRRKAEDKEAKSGKVEEKEGQADSDLKGQENPGEDEAGSKDEDSETDYSSEDEEILTKADTLKVKEKKKKKKGQAAGGFFEDASEYDKSLSFQDMNLSRPLLKAITAMGFKQPTPIQKACIPVGLLGKDICACAATGTGKTAAFALPVLERLIYKPRQAAVTRVLVLVPTRELGIQVHSVTKQLAQFCSITTCLAVGGLDVKSQEAALRAAPDILIATPGRLIDHLHNCPSFHLSSIEVLILDEADRMLDEYFEEQMKEIIRMCSHHRQTMLFSATMTDEVKDLASVSLKNPVRIFVNSNTDVAPFLRQEFIRIRPNREGDREAIVAALLMRTFTDHVMLFTQTKKQAHRMHILLGLLGLQVGELHGNLSQTQRLEALRRFKDEQIDILVATDVAARGLDIEGVKTVINFTMPNTVKHYVHRVGRTARAGRAGRSVSLVGEEERKMLKEIVKAAKAPVKARILPQDVILKFRDKIEKLEKDVYAVLQLEAEEKEMQQSEAQIDTAQRLLAKGKETADQEPERSWFQTKEERKKEKIAKALQEFDLALRGKKKRKKFMKDAKKKGEMTAEERSQFEILKAQMFAERLAKRNRRTKRARAMPEDEPTGPAKKQKQQQKSVFDEELTNTSKKALKQYRAGPSFEERKQSGLPRQRRGNFKSKSRYKRKK	binds
Ddx47 (protein, UniProt Q9CWX9 1-455) MAADEEPDSPSGALQTAAEEEETKTFKDLGVTDVLCEACDQLGWAKPTKIQIEAIPLALQGRDIIGLAETGSGKTGAFALPILNALLETPQRLFALVLTPTRELAFQISEQFEALGSSIGVQCAVIVGGIDSMSQSLALAKKPHIVIATPGRLIDHLENTKGFNLRALKYLVMDEADRILNMDFETEVDKILKVIPRDRKTFLFSATMTKKVQKLQRAALKNPVKCAVSSKYQTVEKLQQYYLFIPSKFKDTYLVYILNELAGNSFMIFCSTCNNTQRTALLLRNLGFTAIPLHGQMSQSKRLGSLNKFKAKARSILLATDVASRGLDIPHVDVVVNFDIPTHSKDYIHRVGRTARAGRSGKAITFVTQYDVELFQRIEHLIGKKLPVFPTQDEEVMMLTERVNEAQRFARMELREHGEKKKRKREDAGDDDDKEGAIGVRNKVAGGKMKKRKGR	binds
BST2 (protein, UniProt Q8R2Q8 1-152) MAPSFYHYLPVPMDEMGGKQGWGSHRQWLGAAILVVLFGVTLVILTIYFAVTANSVACRDGLRAQAECRNTTHLLQRQLTRTQDSLLQAETQANSCNLTVVTLQESLEKKVSQALEQQARIKELENEVTKLNQELENLRIQKETSSTVQVNS	binds

Now from value to binder:

binding	Binder
binds	RRP1 (protein, UniProt P56183 1-494) MVPGVPLPPEIQLAQRLAGNEQVTRDRALRKLRKYIEARSQRATGGFTPDELLKVWKGLFYCMWMQDKPLQQEELGRTIAQLVHAFHTTEAQHQFLKAFWQTMIREWVGIDRLRLDKFYMLMRMVLSESLKAVKARGWDERQIEQLLELLTTEILNPDSQAPSGVKSHFLEIFLEELAKVGAAELTADQNLQFIDPFCQIAARTKDSQVLHKIIQSIFQTIVEQAPLAIEDIMNELDTQSGEGEASDGDDGEASDGDDGEASDDDDGEASDGGDGDVADSDDSDGADDDDGDVSDGDGGDNDEGDSNKSSEGEQDLQDTPPKKLPAGTAHRAGPEADKEQAWDDEENAGPVLQFDYEALANRLFKLASRQSTPSQNRKRLYKVIQKLRELAGGTFPEDDVPEKAYKKMLEGRRERKKKKKRLPKPQPQNKEAGSEAESSSADPGPGRKRKRNRKTDEKAGQGGPPGKRRKPGARAKGAGAQQPKKRIQSSQSAE
binds	RRP9 (protein, UniProt Q91WM3 1-475) MSTAVATRKRAKPAPGPGAAPVAGKRRRKVDSAADRGKSKGGGKMNEEISSDSESESLAPRKTEEEEEEELEETAQEKKLRLAKLYLEQLRQQEEEKAEARAFEEDQVAGRLKEDVLEQRGRLQKSVAKEIQAPAPTDIRVLRGHQLSITCLVITPDDLAIFSAAKDCTIIKWSVETGRKLHVIPRAKKGAQGQPAGHSSHVLCMAISSDGKYLASGDRSKLILIWEAQSCQHLYTFTGHRDAVSGLAFRKGTHQLYSTSHDRSVKVWNAAENSYVETLFGHQDAVAALDALSRECCVTAGGRDGTVRVWKIPEESQLVFYGHQGSIDCIHLINEEHMVSGADDGSVALWGLSKKRPLALQREAHGLHGEPGLEQPFWVSSVAALLNTDLVATGSHNARVRLWQCGEGFRQLDPLCDIPLVGFINSLKFSSAGDFLVAGVGQEHRLGRWWRIKEARNSVCIIPLRRLPVSPVAGS
binds	Rrs1 (protein, UniProt Q9CYH6 1-365) MEGQRVEELLAKAEQEEAEKLQRITVHKELELEFDLGNLLASDRNPPTVLRQAGPSPEAELRALARDNTQLLINQLWRLPTERVEEAVVARLPEPATRLPREKPLPRPRPLTRWQQFARLKGIRPKKKTNLVWDEASGQWRRRWGYKRARDDTKEWLIEVPGSADPMEDQFAKRTQAKKERVAKNELNRLRNLARAHKMQMPSSAGLHPTGHQSKEELGRAMQVAKVSTASVGRFQERLPKEKAPRGSGKKRKFQPLFGDFAAEKKNQLELLRVMNSKKPRLDVTRATNKQMREEDQEEAAKRRKMSQKGKRKGGRQGPSGKRKGGPPGQGEKRKGGLGSKKHSWPSALAGKKKGVPPQGGKRRK
binds	m6-adenosine reader protein YTHDF3 (protein, UniProt Q8BYK6 1-585) MSATSVDQRPKGQGNKVSVQNGSIHQKDAVNDDDFEPYLSSQTNQNNSYPPMSDPYMPSYYAPSIGFPYSLGEAAWSTAGDQPMPYLTTYGQMSNGEHHYIPDGVFSQPGALGNTPPFLGQHGFNFFPGNADFSTWGTSGSQGQSTQNSAYSSSYGYPPSSLGRAITDGQAGFGNDTLSKVPGISSIEQGMTGLKIGGDLTAAVTKTVGTALSSSGMTSIATNNVPPVSSAAPKPTSWAAIARKPAKPQPKLKPKGNVGIGGSAVPPPPIKHNMNIGTWDEKGSVVKAPPTQPVLPPQTIIQQPQPLIQPPPLVQSQLPQQQPQPPQPQQQQGPQPQAQPHQVQSQQPQLQNRWVAPRNRGTGFNQNNGTGSENFGLGVVPVSASPSSVEVHPVLEKLKAINNYNPKDFDWNLKNGRVFIIKSYSEDDIHRSIKYSIWCSTEHGNKRLDAAYRSLNGKGPLYLLFSVNGSGHFCGVAEMKSVVDYNAYAGVWSQDKWKGKFEVKWIFVKDVPNNQLRHIRLENNDNKPVTNSRDTQEVPLEKAKQVLKIIATFKHTTSIFDDFAHYEKRQEEEEAMRRERNRNKQ
binds	Ddx51 (protein, UniProt Q6P9R1 1-639) MALFHIARYAGPEAAGQGDTDAEAGSRARVLLERLQNRARERQQREPELETTGTAGEGEAAAAGKRRRRPRRRRRVSGSATPNSEAPRAKRRKADKDVDAGRGEEAPEELSAGAEDPGANPQEDVQRPPAPGRVLGDFARRKTPKVQPFLPAWLAKPSCVKKSVTEDLTPIEDIPEVHPDLQKQLRANGITSYFPVQAAVIPALLESADHGFLIGRGGYQPSDLCVSAPTGSGKTLAFVIPVVQALLHRVVCHIRALVVLPTKELAQQVSKVFNIYTDTTPLRVALVTGQKSLAKEQESLVQKTADGFRCLADIVVATPGRLVDHIDQTPGFSLQQLRFLIIDEADRMIDSMHQSWLPRVVAAAFYSEGPTGSCALLQRTQPQALTAASTCVPQMPLQKLLFSATLTQDPEKLQRLGLYQPRLFSTRLGQQSPKDTAEVDENSGKYTFPVGLTHHYVPCRLSSKPLIVLHLVLRMSCSRALCFTNSRENSHRLYLLAQAFGGVSVAEFSSRYGPGQRKKILKQFEQGKIQLLISTDATARGIDVQGVELVINYDAPQYLRTYVHRVGRTARAGKTGQAFTLLLKVQERKFLQMVSEAGVPELTHHEIPRKLLQPLVARYETALSQLEKTVKEEQKLKAA
binds	RRP8 (protein, UniProt Q9DB85 1-457) MFEEPEWVEAAPAIVGLGAATAQVRPATAPPVKGRKRRHLLATLRALEAASLSQQTPSLPGSDSEEEEEVGRKKRHLQRPSLASVSKEVGKKRKGKCQKQAPSISDSEGKEIRRKCHRQAPPLGGVSAGEEKGKRKCQEYSSLHLTQPLDSVDQTVHNSRTSTATIDPSKPSPESMSPNSSHTLSRKQWRNRQKNKRRHKNKFRPLQTPEQAPPKASIEETEVPPVPKSDSQESRAGALRARMTQRLDGARFRYLNEQLYSGPSSAARRLFQEDPEAFLLYHRGFQRQVKKWPLHPVDRIAKDLRQKPASLVVADFGCGDCRLASSVRNPVHCFDLASLDPRVTVCDMAQVPLEDESVDVAVFCLSLMGTNIRDFLEEANRVLKTGGLLKVAEVSSRFEDIRTFLGAVTKLGFKIIYKDLTNSHFFLFDFEKTGPPRVGPKAQLSGLKLQPCLYKRR
binds	NUFP2 (protein, UniProt Q5F2E7 1-692) MEEKPGQPQPQHHHSHHHPHHHPQQQQQQQSHHHHHYYFYNHSHNHHHHHHHQQPHQYLQHGAEGSPKAQPKPLKHEQKHTLQQHQETPKKKTGYGEINGNAGEREISLKSLSSDEATNPISRVLNGNQQVVETSLKQTVKTSTFGKAGIKTKNFIQKNSMDKKNGKSYENKSGETQAVDKTDTIAIPNGVITSSSGYITNGYMSKGADNDGSGSESGYTTPKKRKARRNSAKGCENLNLVQDKIMQETSVPALKQGLETLKPDYSEQKGMRVDGSKPIWKYETGPGGTSRGKPAMGDVLRKSSDIKPGLSSKKFDDRPKGKHASAAASKEDSWTLFKPPPVFPVDNSSAKIVPKISYASKVKENLNKTVQNSSVSPSSSSSSSSTGETQTQSSSRLSQVPMSALKSVTSASFSNGPVLAGTDGSVYPSGGQPLLTTAANTLTPISTGTDSVLQDMSLASAAVEQIKSSLFIYPSNMQTVLLSAQVDLPSQTDQQNLGDIFQNQWGLSFINEPSAGPETVIGKSSDHKVMEVTFQGEYPATLVSQGAEIIPSGTEHPVFPKAYELEKRTSPQVLGHILKPGTTESGALSLDPSHIGDLQKADTSSQGALVFLSKDYEIENQNPLASPTNTLLGSAKEQRYQRGLERNDSWGSFDLRAAIVYHTKEMESIWNLQKQDPKRIITYNEAMDSPDQ
